# Laboratory results published in patent US20170327825.
# Amino acid sequences for entries named in this document (tags omitted). A change or cut given only in a name is not applied to a line headed by its entry. Residues count along the entry.
# UniProt Q07955, 2-248: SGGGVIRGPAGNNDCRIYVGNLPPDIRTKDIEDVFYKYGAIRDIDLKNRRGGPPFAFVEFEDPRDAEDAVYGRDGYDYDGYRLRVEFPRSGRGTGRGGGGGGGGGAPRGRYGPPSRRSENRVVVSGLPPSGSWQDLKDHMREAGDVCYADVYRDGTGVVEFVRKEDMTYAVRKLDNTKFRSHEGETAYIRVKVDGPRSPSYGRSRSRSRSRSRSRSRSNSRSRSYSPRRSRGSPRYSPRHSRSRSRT
# UniProt P26599: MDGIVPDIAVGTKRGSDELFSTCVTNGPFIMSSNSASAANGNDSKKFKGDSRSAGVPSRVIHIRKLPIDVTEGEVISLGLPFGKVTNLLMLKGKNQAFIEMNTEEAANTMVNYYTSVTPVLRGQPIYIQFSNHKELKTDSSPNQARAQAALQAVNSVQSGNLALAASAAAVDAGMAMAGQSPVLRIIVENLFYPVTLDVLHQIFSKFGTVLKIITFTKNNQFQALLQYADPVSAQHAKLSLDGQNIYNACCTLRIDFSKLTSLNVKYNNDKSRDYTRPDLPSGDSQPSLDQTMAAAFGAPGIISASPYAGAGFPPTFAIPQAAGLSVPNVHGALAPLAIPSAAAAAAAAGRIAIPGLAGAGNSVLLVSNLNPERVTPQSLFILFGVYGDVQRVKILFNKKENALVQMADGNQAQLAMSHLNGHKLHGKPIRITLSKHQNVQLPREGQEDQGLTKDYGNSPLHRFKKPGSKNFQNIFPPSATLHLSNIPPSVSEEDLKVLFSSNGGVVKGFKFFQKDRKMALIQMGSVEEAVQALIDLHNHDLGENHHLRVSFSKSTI
# Construct, isoform or probe ends are uncertain for at least one entry. Where cells or extracts were used, other partners may take part. For part of these data: Protein sequences can lack the tags named with them.
# How the values were obtained:
# Experiment in all cases: pull-down
# [1] = biological target: SRSF1 (SF2/ASF) (UniProt Q07955); conditions: 2'-OMe; nuclear extract, streptavidin beads blocked with heparin, western blot; repeat number of the pulldown oligo not stated (three/four), n=3 sequence given; protein in an extract; protein details: overexpressed in HEK293 nuclear extract; label: biotin
# [2] = biological target: PTBP1 (Homo sapiens) (UniProt P26599); conditions: 2'-OMe; nuclear extract, streptavidin beads blocked with heparin, western blot; protein in an extract; protein details: HEK293 nuclear extract; label: biotin
# [3] = biological target: T1, RBFOX2 (UniProt O43251); conditions: 2'-OMe; nuclear extract, streptavidin beads blocked with heparin, western blot; protein in an extract; protein details: overexpressed in HEK293 nuclear extract; label: biotin
# T1 sequence (looked up, limits assumed): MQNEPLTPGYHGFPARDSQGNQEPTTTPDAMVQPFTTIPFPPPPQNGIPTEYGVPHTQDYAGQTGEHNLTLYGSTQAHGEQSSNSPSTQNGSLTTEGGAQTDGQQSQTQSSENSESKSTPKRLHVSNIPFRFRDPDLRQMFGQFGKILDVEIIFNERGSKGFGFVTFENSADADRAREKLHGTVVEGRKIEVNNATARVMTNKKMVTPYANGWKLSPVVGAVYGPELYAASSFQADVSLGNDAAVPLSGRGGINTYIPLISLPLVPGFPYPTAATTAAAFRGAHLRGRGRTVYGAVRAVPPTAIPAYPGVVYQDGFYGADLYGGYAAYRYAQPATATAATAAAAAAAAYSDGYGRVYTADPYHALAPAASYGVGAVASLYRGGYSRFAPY
sequence,measurement,setting,value
"CGCAGGACGCAGGACGCAGGA [SF2i2 (SRSF1 decoy, CGCAGGA repeats)]",binding result,[1],binds
CUCUCUCUCUCUCUCUCUCUCUCU [PTBP1i (PTBP1 INHIB1X4)],binding result,[2],binds
"UGCAUGUGCAUGUGCAUGUGCAUG [RBFOXi (RBFOX1/2 decoy, 4 repeats)]",binding result,[3],binds
